The other results are listed elsewhere or left out.
Compound: Cc1cc(ccc1-c1ccccc1)C(=O)N1CCCN(CC1)C(=O)CCl [compound 10]
Assay: probe-labelled cysteine peptide fold change vs DMSO (competition) (log2 fold change); higher = less target engagement (more negative = stronger competition)
Conditions: THP-1, incubation time: 4 h
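Note: competitive profiling in live THP-1 cells: cysteine peptides tagged with an iodoacetamide desthiobiotin (IA-DTB) probe, intensity after compound treatment relative to DMSO-treated cells.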

Target	probe-labelled cysteine peptide fold change (10 µM)	probe-labelled cysteine peptide fold change (50 µM)
RBBP7_Q16576_97_VHIPNDDAQFDASHCDSDK (UniProt Q16576)	-0.205	-0.18
RBBP6_Q7Z6E9_27_LNYDTVTFDGLHISLCDLKK (UniProt Q7Z6E9)	0.0263	-0.077
RAP1A_P62834_118_VKDTEDVPMILVGNKCDLEDER (UniProt P62834)	-0.426	-1
RANBP2_P49792_2982_VCANHVITK (UniProt P49792)	0.0357	0.111
RBBP6_Q7Z6E9_283_DIMTDAVVIPCCGNSYCDECIR (UniProt Q7Z6E9)	0.318	0.243
RASA1_P20936_1002_DLAALHEICVAHSDELR (UniProt P20936)	-0.144	0.0744
RARS2_Q5T160_576_LLGITPVCR (UniProt Q5T160)	-0.27	-0.0629
RARS_P54136_32_NCGCLGASPNLEQLQEENLK (UniProt P54136)	0.187	-0.975
RDH11_Q8TC12_33_MLSSGVCTSTVQLPGK (UniProt Q8TC12)	-0.185	0.174
RANBP9_Q96S59_678_EPVCSALNSAILETHNLPK (UniProt Q96S59)	-0.0619	0.131
RASAL2_Q9UJF2-2_95_KYCILTDSQLVLLNK (UniProt Q9UJF2)	0.13	-0.173
RBBP9_O75884_163_FTDCGHFQNTEFHELITVVK (UniProt O75884)	-0.11	-0.0199
RARS_P54136_34_NCGCLGASPNLEQLQEENLK (UniProt P54136)	-0.247	-1.27
RAN_P62826_120_VCENIPIVLCGNK (UniProt P62826)	-0.0124	-0.0236
RCHY1_Q96PM5_183+186_CPLCMHSALDMTR (UniProt Q96PM5)	0.03	-0.16
RAI1_Q7Z5J4_40_QPSQAGLSCDR (UniProt Q7Z5J4)	-0.205	-0.513
RARS_P54136_502_VLTAEELNAAQTSVAYGCIK (UniProt P54136)	0.12	0.104
RANBP6_O60518_792_SIEVMGDGCLNDEHLEELGGILK (UniProt O60518)	-0.0727	0.0635
RBBP6_Q7Z6E9_296+299_TALLESDEHTCPTCHQNDVSPDALIANK (UniProt Q7Z6E9)	-0.117	-0.635
RARS2_Q5T160_479_LHSLEETFGCGYLNDFNTACLQEPQSVSILQHLLR (UniProt Q5T160)	-0.037	0.0628
RBBP4_Q09028_138_YMPQNPCIIATK (UniProt Q09028)	0.0321	-0.0569

Target	probe-labelled cysteine peptide fold change (10 µM)	probe-labelled cysteine peptide fold change (50 µM)
RARS2_Q5T160_74_CDTVVSEISTGQR (UniProt Q5T160)	0.34	0.331
RASAL2_Q9UJF2_333_EELACALVHILQSTGR (UniProt Q9UJF2)	0.198	0.357
RBM14_Q96PK6_108_VIECDVVK (UniProt Q96PK6)	0.0525	0.011
RBM26_Q5T8P6_53_ALCIDQLDVFLQK (UniProt Q5T8P6)	0.15	0.248
RANBP2_P49792_1552_EGQWDCSSCLVR (UniProt P49792)	0.105	-0.393
RBMS1_P29558_194_CEAVIGHFNGK (UniProt P29558)	0.153	0.141
RBPJ_Q06330_286_CAFYLK (UniProt Q06330)	0.132	0.148
RCL1_Q9Y2P8_292_GGCVDSTNQSLALLLMTLGQQDVSK (UniProt Q9Y2P8)	0.0546	0.0463
RANGAP1_P46060_82_CHWSDMFTGR (UniProt P46060)	-0.0358	-0.142
RCC1_P18754_81_KKPALVSIPEDVVQAEAGGMHTVCLSK (UniProt P18754)	0.222	0.00225
RCHY1_Q96PM5_136_CIENVSR (UniProt Q96PM5)	0.0116	-0.312
RALY_Q9UKM9_51_VAGCSVHK (UniProt Q9UKM9)	0.122	0.07
RCC1_P18754_308_SWVGFSGGQHHTVCMDSEGK (UniProt P18754)	0.0815	-0.0668
RCHY1_Q96PM5_90_IQHAQQTCEECSTLFGEYYCDICHLFDK (UniProt Q96PM5)	0.143	-0.00379
RBM42_Q9BTD8_385_IFCGDLGNEVNDDILAR (UniProt Q9BTD8)	0.118	0.308
RCHY1_Q96PM5_20_GCEHYDR (UniProt Q96PM5)	-0.00508	-0.102
RASAL3_Q86YV0_614_LLCPAILAPSLFGLAPDHPAPGPAR (UniProt Q86YV0)	0.184	0.0962
RAPGEF6_Q8TEU7_1413_HTHLDDPIAEVEPTDSEPYSCSK (UniProt Q8TEU7)	-0.346	-0.271
RBBP4_Q09028_167_HPSKPDPSGECNPDLR (UniProt Q09028)	0.000782	0.0762
RBM22_Q9NW64_84_NVCQTCLLDLEYGLPIQVR (UniProt Q9NW64)	0.0629	-0.183
RANBP6_O60518_952_SLCSEAVPLLVK (UniProt O60518)	-0.17	-0.308

Target	probe-labelled cysteine peptide fold change (10 µM)	probe-labelled cysteine peptide fold change (50 µM)
RBCK1_Q9BYM8_323_NSQEAEVSCPFIDNTYSCSGK (UniProt Q9BYM8)	-0.0376	-0.39
RANGAP1_P46060_169_ILAAALTECHR (UniProt P46060)	-0.0288	-0.0217
RALGAPA2_Q2PPJ7_418_GYVNFVNEVFHQAFLLPSCEIAVTR (UniProt Q2PPJ7)	-0.0914	-0.0596
RAPGEF6_Q8TEU7_796_EVVFHAVHEFGLTGASDTYSLCEVSVTPEGVIK (UniProt Q8TEU7)	0.354	0.395
RASA1_P20936_828_QSCELSPSK (UniProt P20936)	0.0294	0.292
RCC1_P18754_93_SGQVYSFGCNDEGALGR (UniProt P18754)	0.305	0.193
RANBP2_P49792_1196_TGEEDEEEFFCNR (UniProt P49792)	0.192	-0.193
RCC2_Q9P258_337_DVACGANHTLVLDSQKR (UniProt Q9P258)	-0.133	-0.211
RAP1GDS1_P52306_560+567_YNSMVLICALMGSECLHK (UniProt P52306)	-0.0101	-0.483
RASGRP2_Q7LDG7_11_GCTVEELLR (UniProt Q7LDG7)	0.159	-0.0624
RANGAP1_P46060_573_ALAPLLLAFVTKPNSALESCSFAR (UniProt P46060)	-0.413	0.0613
RANBP1_P43487_99_ICANHYITPMMELKPNAGSDR (UniProt P43487)	0.141	-0.0316
RBL2_Q08999_635_ADEICIAGSPLTPR (UniProt Q08999)	-0.456	0.0435
RANBP1_P43487_99_ICANHYITPMMELK (UniProt P43487)	0.31	0.438
RAP1GDS1_P52306_117_ALGNICYDSHEGR (UniProt P52306)	-0.095	-0.405
RBM6_P78332_960_LACLLCR (UniProt P78332)	-0.0337	0.102
RAPGEF1_Q13905_958_QTSEGLAEYCTLIDSSSSFR (UniProt Q13905)	-0.103	-0.383
RBBP5_Q15291_43_WGTLLAVGCNDGR (UniProt Q15291)	-0.0227	0.0172
RBM12B_Q8IXT5_837_CPSDEDFR (UniProt Q8IXT5)	-0.12	-0.0704
RBBP4_Q09028_278_PSHSVDAHTAEVNCLSFNPYSEFILATGSADK (UniProt Q09028)	0.236	0.259
RCHY1_Q96PM5_43_LCHDNNEDHQLDR (UniProt Q96PM5)	0.344	2.12

Target	probe-labelled cysteine peptide fold change (10 µM)	probe-labelled cysteine peptide fold change (50 µM)
RALGAPB_Q86X10_1096_SFPDPVTDCKPPPPAQEFQTAR (UniProt Q86X10)	0.0369	0.00903
RCC2_Q9P258_209_LIEGLSHEVIVSAACGR (UniProt Q9P258)	0.0481	0.0891
RBKS_Q9H477_59_GANQCVQAAR (UniProt Q9H477)	-0.07	-0.0949
RAI1_Q7Z5J4_790_GDTHEASACLGFQEEDPPGEK (UniProt Q7Z5J4)	-0.354	-0.306
RBPJ_Q06330_68+72_FFCPPPCVYLMGSGWK (UniProt Q06330)	0.0391	0.0548
RANBP2_P49792_1424_KEGHWDCSICLVR (UniProt P49792)	-0.00245	-0.496
RCHY1_Q96PM5_65_EVQCINCEK (UniProt Q96PM5)	-0.0388	-0.314
RCC1L_Q96I51_181_VLQVSCGR (UniProt Q96I51)	0.107	0.0672
RAI1_Q7Z5J4_899_APLICTK (UniProt Q7Z5J4)	-0.3	-0.16
RBCK1_Q9BYM8_308_ECLQGTIR (UniProt Q9BYM8)	0.0246	-0.387
RANBP2_P49792_3122_VIPDFVCQGGDITK (UniProt P49792)	-0.103	0.0177
RASGRP2_Q7LDG7_548_DRLSVECR (UniProt Q7LDG7)	-0.145	-0.413
RARS_P54136_638_MLLCEAVAAVMAK (UniProt P54136)	-0.175	0.314
RCC1L_Q96I51_237_MQDFDGQVVQVACGQDHSLFLTDK (UniProt Q96I51)	0.0323	0.0663
RANBP2_P49792_3221_ITITECGQI (UniProt P49792)	-0.0955	0.161
RBBP6_Q7Z6E9_44_AADCDLQITNAQTK (UniProt Q7Z6E9)	-0.176	0.102
RCCD1_A6NED2_139_LPLLPCAR (UniProt A6NED2)	-1.01	-1.9
RANBP2_P49792_2710_ECIIVWEK (UniProt P49792)	-0.195	-0.0282
RBM39_Q14498_303_GYGFITFSDSECAK (UniProt Q14498)	-0.0956	0.529
RBBP7_Q16576_277_PSHLVDAHTAEVNCLSFNPYSEFILATGSADK (UniProt Q16576)	0.0787	0.371
